This assay deals with T1, CAPERα (Coactivator of AP1 and Estrogen Receptor), endogenous human (human (endogenous in HEK293 and HFFs)) (UniProt Q14498).
T1 sequence: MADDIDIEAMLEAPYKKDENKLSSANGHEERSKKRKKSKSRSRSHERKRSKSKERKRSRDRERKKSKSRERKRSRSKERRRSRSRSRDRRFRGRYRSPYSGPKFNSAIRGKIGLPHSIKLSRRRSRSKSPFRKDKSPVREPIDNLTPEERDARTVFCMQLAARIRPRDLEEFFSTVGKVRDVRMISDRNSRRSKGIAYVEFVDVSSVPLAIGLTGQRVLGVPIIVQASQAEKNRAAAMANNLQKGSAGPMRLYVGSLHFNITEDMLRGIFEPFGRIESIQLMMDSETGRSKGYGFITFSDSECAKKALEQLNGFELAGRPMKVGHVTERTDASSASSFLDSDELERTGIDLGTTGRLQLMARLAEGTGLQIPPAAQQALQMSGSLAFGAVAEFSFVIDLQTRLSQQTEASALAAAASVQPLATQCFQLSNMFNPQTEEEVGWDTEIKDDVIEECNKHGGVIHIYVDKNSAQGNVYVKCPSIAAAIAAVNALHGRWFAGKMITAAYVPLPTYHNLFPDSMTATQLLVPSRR
In words: co-IP; HEK293 cells transfected with anti-TBX3 shRNA and expressing untagged mouse Tbx3 proteins; IP with anti-CAPERα (endogenous), immunoblot with anti-Tbx3.

The results in this text go back to article PMC4071561.

These are yes or no findings as the source states them, for the method shown. In cells and extracts the contact can be indirect. Binding can be weak; no strength is given.

Consider “mouse Tbx3 N227D (DNA binding domain point mutant; N277D in the methods) (from UniProt P70324-2)”, for which the binding entry is “binds”.
